Where two headings read alike, the source gives them in different places. Some entries share one result that the patent states for a list of compounds. For at least one compound, name, drawing or mass did not settle the structure.
Assays:
Assay type in all cases: cell-based
Sclerotinia sclerotiorum = details: 20 ppm
Fusarium culmorum = details: 20 ppm
[1] = test system: Magnaporthe grisea (Pyricularia oryzae); details: 20 ppm; compared to untreated control; growth inhibition determined photometrically 3-4 days after application
[2] = test system: Glomerella lagenarium (Colletotrichum lagenarium); test: Glomerella lagenarium (Colletotrichum lagenarium) / liquid culture (anthracnose); details: 20 ppm; compared to untreated control; growth inhibition measured photometrically 3-4 days after application
[3] = compared to untreated control, growth inhibition determined photometrically 3-4 days after application

| SMILES | control of Sclerotinia sclerotiorum (Sclerotinia sclerotiorum) | control of Fusarium culmorum (Fusarium culmorum; [3]) | control of Magnaporthe grisea [1] | control of Fusarium culmorum (Fusarium culmorum) | control of Glomerella lagenarium [2] |
| --- | --- | --- | --- | --- | --- |
| CC1(C)CC(Cc2ccccc2)N=C(c2cnc3c(F)c(F)ccc3c2)O1 (stereo not shown) [F-6] | at least 80% | at least 80% | at least 80% | – | – |
| CC1(C)C[C@@H](Cc2ccccc2)N=C(c2cnc3c(F)cccc3c2)O1 [F-3] | at least 80% | – | at least 80% | at least 80% | – |
| CC1(Cc2ccccc2)CC(C)(C)OC(c2cnc3c(F)cccc3c2)=N1 (stereo not shown) [F-2] | – | at least 80% | at least 80% | – | – |
| CC1(C)CC(Cc2ccc(F)cc2)N=C(c2cnc3c(F)c(F)ccc3c2)O1 (stereo not shown) [F-8] | – | at least 80% | – | – | – |
| CC1(C)CC(Cc2ccccc2)N=C(c2cnc3c(F)c(F)ccc3c2)O1 (stereo not shown) [F-5] | – | – | – | – | at least 80% |
| CC1(C)CC(Cc2ccccc2)N=C(c2cnc3c(F)c(F)ccc3c2)O1 (stereo not shown) [E-8, 4-benzyl-2-(7,8-difluoro-3-quinolyl)-6,6-dimethyl-4,5-dihydro-1,3-oxazine] | at least 80% | at least 80% | at least 80% | – | – |

From patent publication US12012399B2, “Microbiocidal quinoline dihydro-(thiazine)oxazine derivatives” (priority 2018, dated 2024)
